Screen size: about 320,000 compounds; about 22,000 (6.9%) were called active. Inconclusive means that the source gave no clear call. Such entries were picked first, then a sample of the others. Calls come from the whole dose curve; as a rule, active = well fitted inhibition curve with a large enough effect; inconclusive = small, poorly fitted or top-dose-only effect, or another doubt; inactive = no such curve, though single readings can be large or run the other way. Potencies of inconclusive entries are doubtful fits and often do not repeat.
assay: Primary qHTS for delayed death inhibitors of the malarial parasite plastid, 96 hour incubation; conditions: P. falciparum luciferase reporter growth; series mostly up to 28.7 µM
How it was run: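 Compounds incubated with erythrocytes infected by luciferase-expressing P. falciparum (2% hematocrit, 0.05% parasitemia final) for 96 hours, 37 C in 5% CO2. Growth inhibition scored as decreased luciferase luminescence.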
Potency is the fitted concentration of half-maximal effect.

| Structure (SMILES) | Potency |
| --- | --- |
| COc1ccc(Nc2oc(-c3ccccc3F)nc2C#N)cc1 | inactive |
| C[n+]1ccc(/C=C/c2ccc(Br)cc2)cc1 | active: 1.31 µM |
| CCOC(=O)NC(=O)c1cn(CCNCCO)c(=O)[nH]c1=O | inconclusive: 0.0052 µM [inhibitor, full curve, poor fit] |
| O=[N+]([O-])c1cc(-c2nnc(Nc3ccc(O)cc3)c3ccccc23)ccc1N1CCOCC1 | inconclusive: 18.5 µM [inhibitor, single point] |
| CC(C)(C)[C@H]1C=C(C(=O)N2CCN(Cc3ccc4c(c3)OCO4)CC2)O[C@@H](OCCCCO)C1 | inconclusive: 13.1 µM [inhibitor, partial curve, poor fit] |
| CC(C)Oc1ccc(N2CC(C(=O)Nc3ccc4c(c3)OCO4)CC2=O)cc1 (stereo unspecified) | active: 14.7 µM |
| Cc1ccccc1-n1c(Cn2c(=O)sc3ccccc32)nnc1SCC(=O)N1CCOCC1 | inconclusive: 16.5 µM [inhibitor, single point] |
| Oc1ccc2ccccc2c1CN1CCN(C/C=C/c2ccccc2)CC1 | active: 9.28 µM |
| Cc1ccc(-c2cccc(C3CC=CC4C3C(=O)N(Cc3ccccc3)C4c3cc(C)ccc3F)c2)cc1 (stereo unspecified) | active: 7.38 µM |
| CCc1c(C)sc(NC(=O)c2cc(-c3cc(OC)ccc3OC)on2)c1C#N | inconclusive: 0.0329 µM [inhibitor, full curve, poor fit] |
| Cc1ccc(NS(=O)(=O)c2ccc(C(=O)N3CCN(c4ncccn4)CC3)cc2)cc1 | inactive |
| CN(Cc1ccccc1)c1ccc2nnc(-c3ccccc3)n2n1 | inconclusive: 20.8 µM [inhibitor, single point] |
| S=C(NCc1ccncc1)Nc1ccc(Cl)c(Cl)c1 | inconclusive: 4.15 µM [inhibitor, full curve, poor fit] |
| CCC(C)(O)c1[nH]c2ccc(C#N)cc2c1C (stereo unspecified) | inactive |
| CCCCOC(=O)C(C)Oc1ccc(=O)n(-c2ccccc2)n1 (stereo unspecified) | inconclusive: 14.7 µM [inhibitor, partial curve, poor fit] |
| CC(/C=C1\SC(=O)N(CCCC(=O)O)C1=O)=C\c1ccccc1 | active: 5.86 µM |
| Cc1[nH]c2ccccc2c1C(=O)CSc1nncn1C | inactive |
| Cc1ccc(C(=O)O)cc1N1CCCC1=O | inconclusive: 18.5 µM [inhibitor, single point] |
| Cc1cccn2c(=O)nc(SCC(=O)Nc3cccc4ccccc34)nc12 | inconclusive: 18.5 µM [inhibitor, single point] |
| O=C(Nc1cccc(S(=O)(=O)N2CCCCC2)c1)c1ccccn1 | inactive |
| COc1ccc(NC(=O)Cc2c(F)cccc2Cl)c(OC)c1 | inactive |
| O=C(CNC(=O)C1CCCCC1)Nc1cc(Cl)ccc1Cl | inactive |
| O=C1N=C(N2CCCCC2)S/C1=C\c1ccncc1 | inconclusive: 2.62 µM [inhibitor, partial curve, poor fit] |
| CCOC(=O)c1ccc(NC2=CC(=O)C(=O)c3ccccc32)cc1 | inactive |

An excerpt of these results, as comma-separated lines:
Structure (SMILES),Potency
C[n+]1ccc(/C=C/c2ccc(Br)cc2)cc1,active: 1.31 µM
CCOC(=O)NC(=O)c1cn(CCNCCO)c(=O)[nH]c1=O,"inconclusive: 0.0052 µM [inhibitor, full curve, poor fit]"
O=[N+]([O-])c1cc(-c2nnc(Nc3ccc(O)cc3)c3ccccc23)ccc1N1CCOCC1,"inconclusive: 18.5 µM [inhibitor, single point]"
CC(C)(C)[C@H]1C=C(C(=O)N2CCN(Cc3ccc4c(c3)OCO4)CC2)O[C@@H](OCCCCO)C1,"inconclusive: 13.1 µM [inhibitor, partial curve, poor fit]"

Next entries

| Structure (SMILES) | Potency |
| --- | --- |
| NNC(=O)CSc1cccc2cccnc12 | inactive |
| COc1cccc(C2c3c(-c4ccccc4)n[nH]c3C(=O)N2c2ccc(C(=O)O)cc2)c1 (stereo unspecified) | inconclusive: 10.4 µM [inhibitor, single point] |
| CC(C)(C)c1ccc(-c2nc(N)nc(N)n2)cc1 | inactive |
| O=P(NCc1ccccc1)(Oc1ccccc1)Oc1ccccc1 | inconclusive: 2.08 µM [inhibitor, single point] |
| N#Cc1c(NC(=O)CCn2cnc3ccccc3c2=O)oc(-c2ccccc2)c1-c1ccccc1 | inactive |
| CCOc1ccc(C(=O)NC2CCN(S(=O)(=O)CC)CC2)cc1 | active: 2.33 µM |
| CCOC(=O)C(=O)NCc1ccc(/C=C2/N=C(C)C(C(=O)OCC)=C2O)o1 | inactive |
| CC(=O)n1nc(-c2ccccc2)nc1NCc1cccs1 | inconclusive: 4.65 µM [inhibitor, partial curve] |
| COc1ccc(NC(=O)[C@@H](NC(=O)N2C[C@H]3C[C@@H](C2)c2cccc(=O)n2C3)C(C)C)cc1OC | inactive |
| COc1cccc(NC(=O)c2sc3ncn(CC(=O)N4CCN(c5ccccn5)CC4)c(=O)c3c2C)c1 | inconclusive: 18.5 µM [inhibitor, single point] |
| Nc1cc2c(cc1O)CCCC2 | inconclusive: 16.5 µM [inhibitor, single point] |
| COc1ccc(Cl)cc1NC(=O)CN1CCC(NC(=O)C2CC2)CC1 | inactive |
| CC1=CN2C(=NC(=O)CC2(C)C(=O)N(CC(=O)NC2CCCC2)c2cc(C)cc(C)c2)C=C1 (stereo unspecified) | inconclusive: 14.7 µM [inhibitor, partial curve] |
| COC(=O)c1ccc(C(=S)NCC2(N(C)C)CCCCC2)cc1 | inconclusive: 18.5 µM [inhibitor, single point] |
| S=c1[nH]nc(-c2ccncc2)n1/N=C/C(Cl)=C\c1ccccc1 | inactive |
| Cc1cc(C)nc(SCc2ccc(C(=O)N/N=C/c3ccccn3)cc2)n1 | inconclusive: 18.5 µM [inhibitor, single point] |
| COc1ccc(-n2nc(N)c3c(=O)oc(N(C)C)nc32)cc1 | inactive |
| Cc1cc(NC(=O)CSc2nc(CC(C)(C)C)nc3c2c(=O)n(C)c(=O)n3C)no1 | inactive |
| CCCCc1nc2cc(C(=O)NCc3nccn3CC)ccc2o1 | inactive |
| N#Cc1sc2nc(N3CCCCC3)c3c(c2c1N)CCCC3 | inconclusive: 4.15 µM [inhibitor, single point] |
| COc1cccc(NC(=O)Cn2nnc(C(=O)NCCc3ccccc3)c2N)c1 | inconclusive: 18.5 µM [inhibitor, single point] |
| CC1CN(S(=O)(=O)c2cccc(C(=O)Nc3ccccc3N3CCOCC3)c2)CC(C)O1 (stereo unspecified) | inconclusive: 4.15 µM [inhibitor, partial curve] |
| Cc1ccc(CC(=O)Nc2ccc(S(=O)(=O)N3CCOCC3)cc2)cc1C | inconclusive: 11.7 µM [inhibitor, single point] |
| COc1ccccc1N1CCN(C(=O)C2CCC(CNS(=O)(=O)c3ccc(NC(C)=O)cc3)CC2)CC1 (stereo unspecified) | inconclusive: 18.5 µM [inhibitor, single point] |

| Structure (SMILES) | Potency |
| --- | --- |
| O=c1[nH]c(SCc2ccccc2)nc2c1cnn2-c1ccc(F)cc1 | inactive |
| CCOC(=O)CSc1nnc2c3ccccc3n(C)c2n1 | inconclusive: 18.5 µM [inhibitor, single point] |
| CCOc1ccc2oc(C(=O)NCc3nc4ccccc4[nH]3)c(C)c2c1 | inconclusive: 18.5 µM [inhibitor, single point] |
| COc1cc(CNCCCN2CCOCC2)cc(Br)c1OCc1ccc(Cl)cc1 | inconclusive: 18.5 µM [inhibitor, single point] |
| CC(=O)N1CCc2c(sc(NC(=O)CCS(=O)(=O)c3ccccc3)c2C#N)C1 | inconclusive: 10.4 µM [inhibitor, partial curve, poor fit] |
| CC1(C)Cc2c(sc(NC(=O)Nc3ccccc3)c2C(N)=O)CO1 | inconclusive: 16.5 µM [inhibitor, single point] |
| O=C(O)c1ccc(C2SCC(=O)N2Cc2ccccc2)cc1 (stereo unspecified) | active: 1.65 µM |
| COc1cccc(COC(=O)C2CCN(S(=O)(=O)c3ccc(Cl)cc3)CC2)c1OC | inconclusive: 0.522 µM [inhibitor, full curve, poor fit] |
| CCOc1cc(C2Nc3ccccc3C(=O)N2c2ccccc2)ccc1O (stereo unspecified) | inconclusive: 3.7 µM [inhibitor, full curve, poor fit] |
| COc1cc(S(=O)(=O)Nc2ccc(C)cc2)ccc1N=Cc1c(C)[nH]n(-c2ccc(C)cc2)c1=O | inconclusive: 18.5 µM [inhibitor, partial curve, poor fit] |
| CC12CN(Cc3ccccc3)CC(C)(CN(Cc3ccccc3)C1)C2=NO | inconclusive: 0.928 µM [inhibitor, full curve, poor fit] |
| COc1ccc(C(=O)OC(C)C(=O)Nc2cc(C(F)(F)F)ccc2Cl)c(OC)c1OC (stereo unspecified) | inconclusive: 18.5 µM [inhibitor, single point] |
| Cc1cc(C)n(-c2cccc(C(=O)O)c2)n1 | inconclusive: 6.57 µM [inhibitor, partial curve, poor fit] |
| O=C(Nc1ccccc1N1CCOCC1)c1cccs1 | inconclusive: 18.5 µM [inhibitor, single point] |
| CC1CCc2cc(F)cc3c(O)c(C(=O)NCCN(C)C)c(=O)n1c23 (stereo unspecified) | active: 9.28 µM |
| O=C(Nc1cccc2ncccc12)c1cccc(F)c1 | inactive |
| CC(=O)NC(Cc1cccc(F)c1)C(=O)NC1CCN(c2nnnn2-c2ccccc2)CC1 (stereo unspecified) | inconclusive: 3.7 µM [inhibitor, partial curve, poor fit] |
| CCCCOP(=O)(OCCCC)C1(NS(=O)(=O)c2ccccc2)C=CC(=O)c2ccccc21 (stereo unspecified) | inconclusive: 2.33 µM [inhibitor, full curve, poor fit] |
| O=[N+]([O-])c1cc(-c2nnc(-c3ccccc3)o2)ccc1Oc1ccc(Cl)cc1 | inactive |
| COc1ccc(C(=O)OCC(=O)NC2CC2)cc1OC | inconclusive: 0.117 µM [inhibitor, full curve, poor fit] |
| COc1cc(/C=N\Nc2nc(-c3cccs3)c(NC(C)=O)s2)ccc1O | inconclusive: 18.5 µM [inhibitor, single point] |
| O=C(NC(Cc1ccccc1)C(=O)O)/C(=C\c1ccc(F)cc1)NC(=O)c1ccccc1 (stereo unspecified) | inconclusive: 11.7 µM [inhibitor, single point] |
| Cc1oc(-c2ccccc2Cl)nc1CS(=O)CC(=O)NCc1ccccc1Cl (stereo unspecified) | inconclusive: 10.4 µM [inhibitor, single point] |

— PubChem BioAssay AID504834 (National Center for Advancing Translational Sciences (NCATS), 2011)
